# Assay results taken from PubChem BioAssay AID540276 (National Center for Advancing Translational Sciences (NCATS), 2011).
# “And” between values parts separate entries of the source, which are not always exact repeats. Equal values may be shown once. Screen size: about 300,000 compounds; about 5,400 (1.8%) were called active. The shares of active, inactive and inconclusive entries below differ from those in the screen. The call rests on the fitted dose curve; tested in HEK293 cells. Potencies of inconclusive entries are doubtful fits and often do not repeat.
# Experiment: qHTS for inhibitors of binding or entry into cells for Marburg Virus
# Conditions: Marburg virus pseudotyped entry inhibition, cell reporter; activity change, negative = inhibition: at 37.8 µM (top of the series) unless noted
# On the % scale 0 is the no-effect control and ±100 the full control effect; potency means the concentration at half of the fitted maximal effect.
Structure (SMILES),Potency,"activity change, negative = inhibition"
COc1ccc2nc(NC(=O)c3cccnc3SC)sc2c1,"inconclusive: 35.5 µM [inhibitor, single point]",
Cc1c(Cl)cccc1NC(=O)c1cc(-c2ccco2)on1,,inactive: 11.5% [at 46.1 µM]
COc1ccccc1-c1nnc(-c2ccc(C)cc2)o1,"inconclusive: 0.631 µM [inhibitor, full curve, poor fit]",
CCn1nc(NS(=O)(=O)c2ccc(NC(C)=O)cc2)c2cc3ccccc3nc21,"inconclusive: 6.31 µM [activator, single point]",
CCN(CC)C(=O)CSc1nnc(CCCCCNC(=O)OC(C)(C)C)o1,,inactive: -3.66%
Oc1c(C(Nc2ccccn2)c2cccnc2)cc(Cl)c2cccnc12 (stereo not drawn),"inconclusive: 35.5 µM [inhibitor, partial curve, poor fit]",
CC1CCCN(CCC(=O)Nc2ccc(Br)cc2)C1 (stereo not drawn),"inconclusive: 23.1 µM [inhibitor, partial curve, poor fit]",
Cc1cccc(C2c3[nH]c4ccccc4c3CCN2C(=O)c2cc(-c3cccn3C)n[nH]2)n1 (stereo not drawn),"inconclusive: 11.2 µM [inhibitor, partial curve, poor fit]",
CN1CCN(S(=O)(=O)c2cccc(C(=O)Nc3nc(-c4ccccc4)cs3)c2)CC1,"inconclusive: 17.8 µM [inhibitor, single point]",
CC12CN3CC(C)(CN(C1)C3c1ccc([N+](=O)[O-])o1)C2=O (stereo not drawn),,inactive: -22.6%
COc1cc(NC(=S)NCCC(c2ccccc2)c2ccccc2)cc(OC)c1,"inconclusive: 8.91 µM [inhibitor, partial curve, poor fit]",
CN(C)CCCNC(=S)/N=c1\sccn1Cc1ccccc1Cl,"inconclusive: 29.1 µM [inhibitor, single point]",
CON/C=C(\C=Nc1ccccc1)c1ncc(C(F)(F)F)cc1Cl,"inconclusive: 0.259 µM [inhibitor, full curve, poor fit]",
CC(C)(C)C(=O)CN1CCN(S(=O)(=O)c2ccc(F)cc2)CC1,"inconclusive: 35.5 µM [inhibitor, partial curve, poor fit]",
COc1ccc(C)cc1NC(=O)CN1CCN(S(=O)(=O)c2ccc(Br)cc2)CC1,inactive,
COc1ccc2c(CC(=O)Nc3ccc(OC)c(NS(=O)(=O)c4ccc(F)cc4)c3)coc2c1,"inconclusive: 39.8 µM [inhibitor, partial curve, poor fit]",
CCCCOC(=O)c1cc(Cl)c(O)c(OC)c1,"inconclusive: 17.8 µM [inhibitor, partial curve, poor fit]",
NC(=O)Nc1ccc(C(=O)OCC(=O)NC2CCCc3ccccc32)cc1 (stereo not drawn),"inconclusive: 6.31 µM [inhibitor, single point]",
COC(=O)c1c(S(C)(=O)=O)nc(-c2ccccc2)[nH]c1=O,,inactive: 9.55%
CC1CCCN(S(=O)(=O)c2ccc(C(=O)NC(C)c3ccccc3)cc2)C1 (stereo not drawn),,inactive: 3.06%
N#Cc1c(-c2ccco2)cc(C2CC2)nc1SCC(=O)c1ccccc1,"inconclusive: 32.6 µM [inhibitor, single point]",
COc1ccc(N2CCN(Cc3cc4c(cc3O)CCC4)CC2)cc1,"inconclusive: 32.6 µM [inhibitor, single point]",

# One compound at a time (already shown):
# `NC(=O)Nc1ccc(C(=O)OCC(=O)NC2CCCc3ccccc32)cc1` (stereo not drawn) in the list: Potency: inconclusive: 6.31 µM [inhibitor, single point]
# `Cc1c(Cl)cccc1NC(=O)c1cc(-c2ccco2)on1` in the list: activity change, negative = inhibition: inactive: 11.5% [at 46.1 µM]
# `CC12CN3CC(C)(CN(C1)C3c1ccc([N+](=O)[O-])o1)C2=O` (stereo not drawn) in the list: activity change, negative = inhibition: inactive: -22.6%
# `CC(C)(C)C(=O)CN1CCN(S(=O)(=O)c2ccc(F)cc2)CC1` in the list: Potency: inconclusive: 35.5 µM [inhibitor, partial curve, poor fit]

# Continued:

Structure (SMILES),Potency,"activity change, negative = inhibition"
COc1cc(C2NCc3ccccc3-n3cccc32)ccc1O (stereo not drawn),"inconclusive: 28.2 µM [inhibitor, single point]",
O=C(Nc1ccc(Oc2ccccc2)cc1)N[C@@H](Cc1ccccc1)C(=O)O,"inconclusive: 35.5 µM [activator, single point]",
Cc1oc2c(cc(NS(=O)(=O)c3ccc(F)cc3)c3ccccc32)c1C(=O)OCc1ccccc1,,inactive: -7.66% [at 46.1 µM]
CC(=O)N1CCN(c2ccc(OC[C@H]3CO[C@](Cn4ccnc4)(c4ccc(Cl)cc4Cl)O3)cc2)CC1,"inconclusive: 20.6 µM [inhibitor, partial curve, poor fit] and inconclusive: 25.1 nM [inhibitor, full curve, poor fit]",
COc1ccc(-c2noc(CSc3nnc(-c4ccccc4)n3C)n2)cc1,"inconclusive: 5.62 µM [activator, full curve, poor fit]",
Fc1ccc(C2=CC(c3ccc(Br)o3)n3ncnc3N2)cc1 (stereo not drawn),,inactive: 4.16%
CCNc1nc(CN2CCOCC2)nc2sc3c(c12)CCC3,"inconclusive: 35.5 µM [inhibitor, single point]",
O=C(NCC1CCCO1)c1ccc(NC(=O)c2ccc(Br)cc2)cc1 (stereo not drawn),"inconclusive: 35.5 µM [inhibitor, partial curve, poor fit]",
Cc1cc(C)c(OCC(=O)N/N=C/c2ccco2)c(C)c1,"inconclusive: 3.98 µM [inhibitor, single point]",
O=C(COC(=O)c1ccc([N+](=O)[O-])s1)Nc1ccccc1,,inactive: 3.38%
Clc1ncnc2scc(-c3ccc(Br)cc3)c12,"inconclusive: 35.5 µM [inhibitor, single point]",
O=C(NC(=S)Nc1ccc(S(=O)(=O)N2CCCCCC2)cc1)c1cccs1,"inconclusive: 0.631 µM [activator, partial curve, poor fit]",
CCn1c(CNC(=O)c2ccco2)nnc1SCC(=O)Nc1cc(C)c(C)cc1Br,"inconclusive: 4.61 µM [inhibitor, full curve, poor fit]",
CC(C)c1onc(C(=O)NCc2ccc(F)cc2)c1[N+](=O)[O-],,inactive: -26.7%
Cc1cc2c(Nc3ccccc3)ncnc2s1,"inconclusive: 3.98 µM [inhibitor, partial curve, poor fit]",
COc1ccc(C(=O)NNC(=S)NC(=O)c2cc(-c3ccccc3)nc3ccccc23)cc1,,inactive: -22.4%
CC(=O)c1cc(-c2ccccc2)n(CC(=O)NCc2ccccc2C)c1C,,inactive: -11.2% [at 46.1 µM]
COC(=O)c1cc2sc(C)cc2n1CC(=O)Nc1ccc(C)cc1Cl,,inactive: -23.3% [at 46.1 µM]
Cc1ccc(C(=O)NC(=O)CSc2ncccc2C(=O)O)cc1,,inactive: 7.04% [at 46.1 µM]
COc1ccc(/C=N/N=C2/SCC(=O)N2Cc2ccccc2)cc1,"inconclusive: 35.5 µM [activator, single point]",
CCCCN(C(=O)C1CSC2(C)CCC(=O)N12)c1c(N)n(Cc2ccccc2)c(=O)[nH]c1=O (stereo not drawn),"inconclusive: 0.891 µM [inhibitor, single point]",
